Results deposited as PubChem BioAssay AID686937 (Drosophila RNAi Screening Center, 2013).
Assay: 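Genes whose loss weakens secretory pathway function in fly cells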 (primary screen). Cells: Drosophila S2 cells expressing secreted horseradish peroxidase. Reagents: long dsRNA against Drosophila genes. Duration: about 5.5 days (5 days dsRNA, then 12 h reporter induction). Conditions: reporter expression induced after 5 days of dsRNA, read 12 h later; inducer not stated. Read-out: 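After 5 days of dsRNA and 12 h of reporter induction, medium peroxidase read by chemiluminescence and scored as per-plate z-score; higher values mean more reporter released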. Scale: z-score: higher = more reporter secreted into medium.
The screen tested about 23,000 reagents; shown is an unselected part of those that have a named target and a result. 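Reduced-secretion tags in replicate 1 do not always agree with the z-scores; no criterion for assigning the tags was given.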 Reagents against one gene are numbered here. Names joined by + are all predicted targets of the reagent. Not all columns of the deposit are shown. Reagent sequences are not shown. Not stated in the record: the amount of reagent.

z-score, replicate 1, by target gene and reagent
CG14562: #1 0.21
Ir21a + asRNA:CR43609: #1 0.25
Hmg-2 (High mobility group protein 2): #1 0.23
CG10182: #1 0.54
Upf1 (Upf1 RNA helicase): #1 -0.01
RhoGAP16F (Rho GTPase activating protein at 16F): #1 0.27
Setd3 (SET domain containing 3): #1 0.15; #2 0.33
Cad74A (Cadherin 74A): #1 0.01
CG32079: #1 -0.04
Plc21C (Phospholipase C at 21C): #1 0.43
CG1998: #1 0.52
CG33543: #1 0.47; #2 0.4
X11Lbeta: #1 0.28; #2 0.38
Prm (Paramyosin): #1 0.38; #2 0.27; #3 0.01
Grp170 (Grp170 co-chaperone): #1 -0.54
Ets97D (Ets at 97D): #1 0.12

4 of these entries in another layout:
target gene | reagent no. | z-score, replicate 1
X11Lbeta | 2 | 0.38
Prm (Paramyosin) | 1 | 0.38
Prm (Paramyosin) | 2 | 0.27
Prm (Paramyosin) | 3 | 0.01

Further records:
z-score, replicate 1, by target gene and reagent
Nca (Neurocalcin): #1 0.31
CG1354: #1 0.29
nab: #1 0.57; #2 0.39
holn1 (hole-in-one): #1 0.21; #2 0.65
Slc25A46b: #1 -0.32
Pms2: #1 0.24
CG10357: #1 0.32
CG34135 + Nasp + CG11768: #1 0.41; #2 -1.62
mab-21: #1 0.33
